In patent publication US8822419B2, “Membrane resident peptide in anti-cancer peptides causes tumor cell necrosis rather than apoptosis of cancer cells” (The Research Foundation of State University of New York, priority 2008, dated 2014):
Part of at least one peptide drawing is inferred or uncertain, most often the ends.

Experiments:
Format in all cases: cell-based, human
MiaPaCa-2 cells [1] = assay: Incubation of MiaPaCa-2 cells with peptides; cell counts by trypan blue exclusion, MTT; conditions: 75 μmol/ml, FIG. 1C
Procedure: Duplicate sets of 6×10^6 MiaPaCa-2 cells were incubated with different concentrations of PNC-28, i.e., 5, 10, 20, 40, 80 and 160 μmol/ml. […] All incubations were carried out using a protocol identical to that described in ref. 1 (1). After the cells had been allowed to adhere to the tissue culture dish (TCD) for 24 hours the medium was removed from each TCD, and new medium containing the same or no peptide concentration was added. Medium from each TCD was removed every 24 h, and fresh medium with its respective peptide at the appropriate concentration was added. Cells were inspected daily for changes in cell growth, morphology, and viability. At the end of each day over a five-day period, duplicate cell counts were performed for each incubation using the trypan blue exclusion method. In addition, cell viability was also determined by 3-[4,5-dimethylthiazol-2-yl]-2,5 diphenyl tetrazolium bromide (MTT) assay according to the manufacturers' instructions (Promega Corporation, Madison, Wis., USA).

MiaPaCa-2 cells [2] = assay: Caspase (CPP32) activity assay as marker for apoptosis; conditions: 75 umol/ml, 24 h, FIG. 4D
Procedure: (§1) Cells from culture plates at 18, 44, 66 and 90 h time points were lysed in situ in cell lysis buffer [1% Triton X-100 in 0.05 M Tris-HCl (pH 8.0), […], 0.02% Na azide, 0.1 mg/ml phenylmethylsulfonylfluoride (PMSF), and 0.001 mg/ml Aprotinin]. Lysates were subjected to 10% SDS-PAGE followed by electrotransfer to nitrocellulose and immunoblotting with antibodies to GFP and p53 (Santa Cruz Biotechnology, Santa Cruz, Calif.). Antibody-labeled proteins were identified by chemiluminescence using ECL methodology (Amersham)(1). Assays for elevated caspase expression were performed using the Clontech (Palo Alto, Calif.) for caspase (CPP32) activity (2). As a positive control for the caspase activity assay, Mia-PaCa-2 cells were incubated with tumor necrosis factor (TNF) (Sigma, St. Louis, Mo.) at a concentration of 10 ng/ml for 24 h. In addition, to detect if significant cell necrosis occurred, the CytoTox96 assay was used (Promega, Madison, Wis.) for LDH released into the cell culture medium as performed on several breast cancer cell lines (2).

MiaPaCa-2 cells [3] = assay: LDH release into cell culture medium (CytoTox96) as marker for necrosis; conditions: 24 h
Procedure: as §1

CC[C@H](C)[C@H](NC(=O)[C@H](CCCNC(=N)N)NC(=O)[C@H](CCCCN)NC(=O)CNC(=O)[C@@H](NC(=O)[C@H](CO)NC(=O)[C@H](Cc1ccccc1)NC(=O)[C@@H]1CCCN1C(=O)[C@@H](N)CCSC)[C@@H](C)O)C(=O)N[C@@H](CCSC)C(=O)N[C@@H](CC(C)C)C(=O)NCC(=O)N[C@@H](CCC(=O)O)C(=O)N[C@@H](CCCCN)C(=O)N[C@@H](CCCCN)C(=O)N[C@@H](Cc1c[nH]c2ccccc12)C(=O)N[C@@H](CCCCN)C(=O)N[C@@H](CCSC)C(=O)N[C@@H](CCCNC(=N)N)C(=O)N[C@@H](CCCNC(=N)N)C(=O)N[C@@H](CC(N)=O)C(=O)N[C@@H](CCC(N)=O)C(=O)N[C@@H](Cc1ccccc1)C(=O)N[C@@H](Cc1c[nH]c2ccccc12)C(=O)N[C@H](C(=O)N[C@@H](CCCCN)C(=O)N[C@H](C(=O)N[C@@H](CCC(N)=O)C(=O)N[C@@H](CCCNC(=N)N)C(=O)NCC(=O)O)C(C)C)C(C)C [PNC-29, reference compound]
effect on cellular growth, morphology, and viability (MiaPaCa-2 cells [1]): no effect | caspase (MiaPaCa-2 cells [2]): approximately 0.05 | LDH activity (MiaPaCa-2 cells [3]; 25 μmol/ml, FIG. 4A): only baseline levels | LDH (MiaPaCa-2 cells [3]; 75 umol/ml, FIG. 4D): approximately 0.01 OD
